In paper PMC10967774:
No constants are given. Whether binding was seen depends on the method and setting. In cells and extracts the contact can be indirect. Some results given as binding are weak or reduced against the parent protein; the word gives no strength. Tags and fused reporters may be left off the sequences shown.

T1: WRKY53 fused to a half of YFP (pBiFCt-2in1-NN) (Arabidopsis thaliana) (UniProt Q9SUP6)
T1 sequence: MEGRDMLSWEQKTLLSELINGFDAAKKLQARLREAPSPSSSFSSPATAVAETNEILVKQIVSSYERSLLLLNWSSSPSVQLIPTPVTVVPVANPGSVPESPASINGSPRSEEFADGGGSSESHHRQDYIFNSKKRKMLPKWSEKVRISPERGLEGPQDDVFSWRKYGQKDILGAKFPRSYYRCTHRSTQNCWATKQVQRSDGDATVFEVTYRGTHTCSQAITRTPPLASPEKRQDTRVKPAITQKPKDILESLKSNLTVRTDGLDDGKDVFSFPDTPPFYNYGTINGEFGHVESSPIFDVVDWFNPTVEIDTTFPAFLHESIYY


What was measured:
[1] = target: T1, WRKY53 fused to a half of YFP (pBiFCt-2in1-NN) (Arabidopsis thaliana); test: split reporter; ratiometric BiFC (YFP halves, pBiFCt-2in1 constructs, internal RFP control) in Agrobacterium-infiltrated N. benthamiana leaves; confocal microscopy 2 days after infiltration
[2] = target: T1, WRKY53 fused to a half of YFP (pBiFCt-2in1-NN) (Arabidopsis thaliana); test: split reporter; ratiometric BiFC (YFP halves, pBiFCt-2in1-NN, internal RFP control) in transiently transformed Arabidopsis protoplasts; read by flow cytometry (CytoFLEX) 1 day after transfection

| Binder | binding [1] | binding [2] |
| --- | --- | --- |
| APX1 fused to a half of YFP (pBiFCt-2in1-NN) (enzyme, UniProt Q05431 1-250) MTKNYPTVSEDYKKAVEKCRRKLRGLIAEKNCAPIMVRLAWHSAGTFDCQSRTGGPFGTMRFDAEQAHGANSGIHIALRLLDPIREQFPTISFADFHQLAGVVAVEVTGGPDIPFHPGREDKPQPPPEGRLPDATKGCDHLRDVFAKQMGLSDKDIVALSGAHTLGRCHKDRSGFEGAWTSNPLIFDNSYFKELLSGEKEGLLQLVSDKALLDDPVFRPLVEKYAADEDAFFADYAEAHMKLSELGFADA | binds | binds |
| CAT2 subunit fused to a half of YFP (pBiFCt-2in1-NN) (enzyme, UniProt P25819 1-492) MDPYKYRPASSYNSPFFTTNSGAPVWNNNSSMTVGPRGPILLEDYHLVEKLANFDRERIPERVVHARGASAKGFFEVTHDISNLTCADFLRAPGVQTPVIVRFSTVIHERGSPETLRDPRGFAVKFYTREGNFDLVGNNFPVFFIRDGMKFPDMVHALKPNPKSHIQENWRILDFFSHHPESLNMFTFLFDDIGIPQDYRHMDGSGVNTYMLINKAGKAHYVKFHWKPTCGVKSLLEEDAIRVGGTNHSHATQDLYDSIAAGNYPEWKLFIQIIDPADEDKFDFDPLDVTKTWPEDILPLQPVGRMVLNKNIDNFFAENEQLAFCPAIIVPGIHYSDDKLLQTRVFSYADTQRHRLGPNYLQLPVNAPKCAHHNNHHEGFMNFMHRDEEVNYFPSRYDQVRHAEKYPTPPAVCSGKRERCIIEKENNFKEPGERYRTFTPERQERFIQRWIDALSDPRITHEIRSIWISYWSQADKSLGQKLASRLNVRPSI | binds | binds |
| CAT3 subunit fused to a half of YFP (pBiFCt-2in1-NN) (enzyme, UniProt Q42547 1-492) MDPYKYRPSSAYNAPFYTTNGGAPVSNNISSLTIGERGPVLLEDYHLIEKVANFTRERIPERVVHARGISAKGFFEVTHDISNLTCADFLRAPGVQTPVIVRFSTVVHERASPETMRDIRGFAVKFYTREGNFDLVGNNTPVFFIRDGIQFPDVVHALKPNPKTNIQEYWRILDYMSHLPESLLTWCWMFDDVGIPQDYRHMEGFGVHTYTLIAKSGKVLFVKFHWKPTCGIKNLTDEEAKVVGGANHSHATKDLHDAIASGNYPEWKLFIQTMDPADEDKFDFDPLDVTKIWPEDILPLQPVGRLVLNRTIDNFFNETEQLAFNPGLVVPGIYYSDDKLLQCRIFAYGDTQRHRLGPNYLQLPVNAPKCAHHNNHHEGFMNFMHRDEEINYYPSKFDPVRCAEKVPTPTNSYTGIRTKCVIKKENNFKQAGDRYRSWAPDRQDRFVKRWVEILSEPRLTHEIRGIWISYWSQADRSLGQKLASRLNVRPSI | binds | binds |
